We go through 36 targets from the supplement of paper PMC12067093, “Discovery and optimisation of a covalent ligand for TRIM25 and its application to targeted protein ubiquitination” (Chemical Science, 2025).

Amino acid sequences for entries named in this document (tags omitted). A change or cut given only in a name is not applied to a line headed by its entry.
UniProt P33992: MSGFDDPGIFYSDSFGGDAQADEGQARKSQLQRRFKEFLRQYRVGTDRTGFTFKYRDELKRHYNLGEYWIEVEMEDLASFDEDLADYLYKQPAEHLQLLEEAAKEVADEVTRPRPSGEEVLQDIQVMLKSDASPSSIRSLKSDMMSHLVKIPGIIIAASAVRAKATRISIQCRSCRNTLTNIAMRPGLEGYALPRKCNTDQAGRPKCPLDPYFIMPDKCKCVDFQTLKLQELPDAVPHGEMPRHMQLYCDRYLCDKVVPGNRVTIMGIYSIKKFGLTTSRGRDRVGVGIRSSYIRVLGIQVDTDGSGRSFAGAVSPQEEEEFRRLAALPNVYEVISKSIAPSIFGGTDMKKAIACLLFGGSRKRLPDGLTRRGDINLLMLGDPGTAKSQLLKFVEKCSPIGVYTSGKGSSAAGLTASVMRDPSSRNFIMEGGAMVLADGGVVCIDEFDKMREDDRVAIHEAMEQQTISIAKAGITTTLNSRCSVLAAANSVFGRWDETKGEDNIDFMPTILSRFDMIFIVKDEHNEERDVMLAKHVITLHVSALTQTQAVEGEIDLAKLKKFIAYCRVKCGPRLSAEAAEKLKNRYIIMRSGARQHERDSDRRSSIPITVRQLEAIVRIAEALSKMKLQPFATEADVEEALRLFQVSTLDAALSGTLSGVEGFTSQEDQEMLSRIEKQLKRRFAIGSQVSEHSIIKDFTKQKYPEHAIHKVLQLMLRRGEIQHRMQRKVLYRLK
UniProt Q9BTE3: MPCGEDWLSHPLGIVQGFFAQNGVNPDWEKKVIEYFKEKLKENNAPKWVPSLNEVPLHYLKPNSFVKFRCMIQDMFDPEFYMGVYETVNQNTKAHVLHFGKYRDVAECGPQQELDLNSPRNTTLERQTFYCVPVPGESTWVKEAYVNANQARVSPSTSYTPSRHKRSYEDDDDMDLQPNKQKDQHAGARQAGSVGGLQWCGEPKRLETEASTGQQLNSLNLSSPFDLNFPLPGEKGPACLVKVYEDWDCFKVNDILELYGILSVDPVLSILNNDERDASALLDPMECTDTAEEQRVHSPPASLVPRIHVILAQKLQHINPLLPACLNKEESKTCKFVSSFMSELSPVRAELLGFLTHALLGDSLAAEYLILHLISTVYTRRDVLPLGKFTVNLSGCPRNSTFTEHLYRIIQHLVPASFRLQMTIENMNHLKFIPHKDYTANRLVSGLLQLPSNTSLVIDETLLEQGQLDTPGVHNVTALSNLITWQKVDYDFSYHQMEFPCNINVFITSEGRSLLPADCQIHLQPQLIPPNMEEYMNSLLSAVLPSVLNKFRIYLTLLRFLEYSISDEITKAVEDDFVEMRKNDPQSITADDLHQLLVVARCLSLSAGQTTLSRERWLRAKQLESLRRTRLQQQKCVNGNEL
UniProt Q9ULK4: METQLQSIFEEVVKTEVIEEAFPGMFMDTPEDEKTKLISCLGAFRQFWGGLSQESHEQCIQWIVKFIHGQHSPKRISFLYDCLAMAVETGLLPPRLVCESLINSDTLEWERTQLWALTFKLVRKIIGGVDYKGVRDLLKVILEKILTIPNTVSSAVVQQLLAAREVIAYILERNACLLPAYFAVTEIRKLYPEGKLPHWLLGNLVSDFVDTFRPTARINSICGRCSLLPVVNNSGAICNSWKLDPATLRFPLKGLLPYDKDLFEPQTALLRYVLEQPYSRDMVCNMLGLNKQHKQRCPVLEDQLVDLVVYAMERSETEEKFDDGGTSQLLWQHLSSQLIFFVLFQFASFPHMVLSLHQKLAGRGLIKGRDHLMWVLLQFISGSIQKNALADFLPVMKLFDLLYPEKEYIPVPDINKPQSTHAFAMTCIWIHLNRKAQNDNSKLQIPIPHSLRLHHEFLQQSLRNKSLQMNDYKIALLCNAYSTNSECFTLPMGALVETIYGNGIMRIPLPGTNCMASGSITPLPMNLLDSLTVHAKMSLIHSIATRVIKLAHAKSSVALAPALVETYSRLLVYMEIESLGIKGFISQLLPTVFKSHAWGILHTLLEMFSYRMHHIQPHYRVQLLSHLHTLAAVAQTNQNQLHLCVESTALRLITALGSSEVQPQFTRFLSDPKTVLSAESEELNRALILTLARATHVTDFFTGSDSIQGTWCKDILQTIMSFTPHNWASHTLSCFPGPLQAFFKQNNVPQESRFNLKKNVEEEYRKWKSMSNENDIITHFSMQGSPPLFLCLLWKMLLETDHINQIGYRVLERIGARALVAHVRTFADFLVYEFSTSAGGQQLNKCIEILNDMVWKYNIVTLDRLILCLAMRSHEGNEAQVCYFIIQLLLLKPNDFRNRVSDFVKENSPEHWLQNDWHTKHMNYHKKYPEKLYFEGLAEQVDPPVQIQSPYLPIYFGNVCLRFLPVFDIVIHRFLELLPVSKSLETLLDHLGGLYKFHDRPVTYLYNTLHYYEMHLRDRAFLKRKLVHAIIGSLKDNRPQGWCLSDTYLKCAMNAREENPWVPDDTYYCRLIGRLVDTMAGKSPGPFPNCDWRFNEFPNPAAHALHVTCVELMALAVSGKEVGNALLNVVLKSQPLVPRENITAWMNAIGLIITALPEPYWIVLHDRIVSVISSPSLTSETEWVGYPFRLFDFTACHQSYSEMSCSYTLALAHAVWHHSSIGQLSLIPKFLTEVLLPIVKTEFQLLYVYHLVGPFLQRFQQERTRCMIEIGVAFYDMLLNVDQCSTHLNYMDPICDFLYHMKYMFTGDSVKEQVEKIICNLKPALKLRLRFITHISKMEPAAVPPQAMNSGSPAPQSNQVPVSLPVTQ
UniProt Q14566: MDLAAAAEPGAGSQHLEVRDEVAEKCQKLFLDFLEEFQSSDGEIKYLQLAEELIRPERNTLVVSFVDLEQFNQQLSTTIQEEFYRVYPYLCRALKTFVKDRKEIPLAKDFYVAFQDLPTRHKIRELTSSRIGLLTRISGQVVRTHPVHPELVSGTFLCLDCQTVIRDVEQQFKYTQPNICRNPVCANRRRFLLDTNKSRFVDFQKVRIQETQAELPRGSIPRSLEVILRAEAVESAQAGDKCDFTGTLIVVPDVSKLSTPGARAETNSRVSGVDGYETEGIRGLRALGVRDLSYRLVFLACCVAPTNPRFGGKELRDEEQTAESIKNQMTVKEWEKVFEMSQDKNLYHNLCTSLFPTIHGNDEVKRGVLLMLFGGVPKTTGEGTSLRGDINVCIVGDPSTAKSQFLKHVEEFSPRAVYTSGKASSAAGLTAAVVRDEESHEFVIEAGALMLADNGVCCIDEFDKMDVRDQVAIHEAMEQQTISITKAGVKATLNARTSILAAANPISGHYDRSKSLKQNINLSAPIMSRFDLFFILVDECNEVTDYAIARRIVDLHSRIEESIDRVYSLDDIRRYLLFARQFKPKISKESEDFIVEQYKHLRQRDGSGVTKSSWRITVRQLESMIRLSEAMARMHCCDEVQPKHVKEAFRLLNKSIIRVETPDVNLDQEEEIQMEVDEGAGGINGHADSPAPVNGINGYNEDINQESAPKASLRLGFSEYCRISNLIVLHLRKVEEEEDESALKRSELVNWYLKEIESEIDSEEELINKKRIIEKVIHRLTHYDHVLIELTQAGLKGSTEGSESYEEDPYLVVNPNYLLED
UniProt P40926: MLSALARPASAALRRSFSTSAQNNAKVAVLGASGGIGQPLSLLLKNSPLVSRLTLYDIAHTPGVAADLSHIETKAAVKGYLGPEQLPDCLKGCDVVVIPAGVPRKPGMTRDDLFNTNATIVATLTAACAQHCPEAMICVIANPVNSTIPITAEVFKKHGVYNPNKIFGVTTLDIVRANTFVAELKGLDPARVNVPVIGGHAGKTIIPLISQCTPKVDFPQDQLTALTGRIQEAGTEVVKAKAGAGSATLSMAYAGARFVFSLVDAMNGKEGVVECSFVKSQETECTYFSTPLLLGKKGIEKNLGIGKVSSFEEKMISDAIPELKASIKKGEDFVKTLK
UniProt P33991: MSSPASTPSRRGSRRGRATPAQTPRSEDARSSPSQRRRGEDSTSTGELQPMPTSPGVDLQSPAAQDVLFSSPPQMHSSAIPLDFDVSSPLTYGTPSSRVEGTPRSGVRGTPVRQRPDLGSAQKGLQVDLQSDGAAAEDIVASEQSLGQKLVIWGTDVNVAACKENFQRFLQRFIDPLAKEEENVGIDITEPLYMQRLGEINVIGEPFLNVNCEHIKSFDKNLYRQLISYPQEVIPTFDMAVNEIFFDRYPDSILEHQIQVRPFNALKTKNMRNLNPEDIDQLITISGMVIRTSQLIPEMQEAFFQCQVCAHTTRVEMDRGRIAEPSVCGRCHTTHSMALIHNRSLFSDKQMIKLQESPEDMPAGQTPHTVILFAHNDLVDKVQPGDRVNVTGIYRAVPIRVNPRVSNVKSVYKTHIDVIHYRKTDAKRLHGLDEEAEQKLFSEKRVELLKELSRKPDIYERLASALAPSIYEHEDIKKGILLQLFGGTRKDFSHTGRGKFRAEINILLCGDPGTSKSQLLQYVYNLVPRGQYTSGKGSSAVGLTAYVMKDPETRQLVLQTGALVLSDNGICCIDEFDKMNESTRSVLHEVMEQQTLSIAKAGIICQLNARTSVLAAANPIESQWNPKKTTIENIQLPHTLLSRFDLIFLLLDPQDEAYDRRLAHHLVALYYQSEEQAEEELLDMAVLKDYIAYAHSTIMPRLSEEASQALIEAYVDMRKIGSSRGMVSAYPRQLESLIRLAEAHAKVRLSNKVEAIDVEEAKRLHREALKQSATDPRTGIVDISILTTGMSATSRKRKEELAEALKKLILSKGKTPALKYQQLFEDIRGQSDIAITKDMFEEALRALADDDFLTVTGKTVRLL
UniProt O95140: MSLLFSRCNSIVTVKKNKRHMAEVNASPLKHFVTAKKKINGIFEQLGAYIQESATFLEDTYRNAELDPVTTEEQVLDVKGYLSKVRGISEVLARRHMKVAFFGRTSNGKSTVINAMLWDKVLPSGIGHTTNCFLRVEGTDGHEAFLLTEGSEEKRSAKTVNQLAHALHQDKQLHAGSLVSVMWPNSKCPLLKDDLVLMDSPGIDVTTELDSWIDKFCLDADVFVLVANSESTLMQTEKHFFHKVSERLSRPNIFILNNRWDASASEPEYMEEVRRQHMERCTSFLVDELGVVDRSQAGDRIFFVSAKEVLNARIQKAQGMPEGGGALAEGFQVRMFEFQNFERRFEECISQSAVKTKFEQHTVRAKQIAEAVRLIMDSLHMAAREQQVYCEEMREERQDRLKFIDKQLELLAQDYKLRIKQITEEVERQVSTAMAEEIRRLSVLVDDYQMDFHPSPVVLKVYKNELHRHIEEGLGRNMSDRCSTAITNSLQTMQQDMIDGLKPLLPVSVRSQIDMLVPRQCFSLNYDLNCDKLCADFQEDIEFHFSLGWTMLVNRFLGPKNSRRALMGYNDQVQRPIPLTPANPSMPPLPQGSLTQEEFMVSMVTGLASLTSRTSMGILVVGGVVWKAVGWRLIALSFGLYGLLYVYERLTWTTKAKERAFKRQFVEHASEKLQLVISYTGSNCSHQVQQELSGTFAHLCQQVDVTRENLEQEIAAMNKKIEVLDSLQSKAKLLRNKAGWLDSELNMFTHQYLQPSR
UniProt O43513: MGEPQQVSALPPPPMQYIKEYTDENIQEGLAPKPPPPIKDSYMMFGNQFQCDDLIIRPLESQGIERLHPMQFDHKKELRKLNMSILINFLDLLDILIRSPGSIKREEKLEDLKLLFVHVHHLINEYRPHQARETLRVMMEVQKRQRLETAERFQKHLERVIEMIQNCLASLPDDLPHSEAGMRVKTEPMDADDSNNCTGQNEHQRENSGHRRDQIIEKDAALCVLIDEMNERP
UniProt P48163: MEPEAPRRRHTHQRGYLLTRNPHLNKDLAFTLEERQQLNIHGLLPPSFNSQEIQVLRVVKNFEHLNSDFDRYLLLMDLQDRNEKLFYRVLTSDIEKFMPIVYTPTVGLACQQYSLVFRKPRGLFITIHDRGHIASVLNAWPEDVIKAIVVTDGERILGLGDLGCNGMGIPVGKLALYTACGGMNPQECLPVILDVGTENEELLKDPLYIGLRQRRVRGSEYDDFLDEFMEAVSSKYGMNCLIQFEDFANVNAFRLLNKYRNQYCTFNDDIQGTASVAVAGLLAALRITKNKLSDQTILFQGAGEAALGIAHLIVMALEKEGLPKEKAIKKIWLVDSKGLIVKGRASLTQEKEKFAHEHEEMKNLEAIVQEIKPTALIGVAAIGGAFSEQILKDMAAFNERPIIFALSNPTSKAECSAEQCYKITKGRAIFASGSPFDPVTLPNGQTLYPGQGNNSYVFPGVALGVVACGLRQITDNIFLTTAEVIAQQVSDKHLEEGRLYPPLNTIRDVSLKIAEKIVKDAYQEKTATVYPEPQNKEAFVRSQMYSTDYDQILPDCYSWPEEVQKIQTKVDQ
UniProt Q6UX53: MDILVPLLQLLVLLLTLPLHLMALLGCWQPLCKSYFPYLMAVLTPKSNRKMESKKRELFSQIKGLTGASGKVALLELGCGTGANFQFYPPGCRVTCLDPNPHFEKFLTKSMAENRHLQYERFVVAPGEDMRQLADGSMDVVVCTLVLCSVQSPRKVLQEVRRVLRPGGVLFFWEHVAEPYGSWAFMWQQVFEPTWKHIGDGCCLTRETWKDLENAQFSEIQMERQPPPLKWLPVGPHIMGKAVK

This is one part of the list.
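Further: competitive profiling in live THP-1 cells: cysteine peptides tagged with an iodoacetamide desthiobiotin (IA-DTB) probe, intensity after compound treatment relative to DMSO-treated cells.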

Compound in one assay: Cc1cc(ccc1-c1ccccc1)C(=O)N1CCCN(CC1)C(=O)CCl [compound 10]
As to the kind of experiment: probe-labelled cysteine peptide fold change vs DMSO (competition) (log2 fold change); higher = less target engagement (more negative = stronger competition). The conditions noted are these: 10 µM; THP-1; incubation time: 4 h.
Regarding “MDN1_Q9NU22_3195_ELLCQLLTSLHHFVGEGESK (UniProt Q9NU22)”, the “probe-labelled cysteine peptide fold change” value was -0.696.
The same measure, in the same setting: the same measure for “MEN1_O00255_414_EAASLLEAGEERPGEQSQGTQSQGSALQDPECFAHLLR (UniProt O00255)”: 0.305; for “MDN1_Q9NU22_2816_LVVECFSQLK (UniProt Q9NU22)”: 0.0993; for “MED14_O60244_1433_QGECTIFAAVR (UniProt O60244)”: -0.0337.
Still for that read-out and setting: the same measure for “MCM5_P33992_197_KCNTDQAGR (UniProt P33992)”: 0.0375; for “MCMBP_Q9BTE3_602_CLSLSAGQTTLSR (UniProt Q9BTE3)”: 0.28.
Same read-out and setting: the same measure for “METTL14_Q9HCE5_288_EHCLMGIK (UniProt Q9HCE5)”: 0.0181; for “MED23_Q9ULK4_712_ATHVTDFFTGSDSIQGTWCK (UniProt Q9ULK4)”: 0.13; for “MCM6_Q14566_158_THPVHPELVSGTFLCLDCQTVIR (UniProt Q14566)”: 0.197.
Consider “ME2_P23368_190_LCLYTACAGIRPDR (UniProt P23368)”, for which the “probe-labelled cysteine peptide fold change” value was 0.0869.
Regarding “MDH2_P40926_89_GYLGPEQLPDCLK (UniProt P40926)”, the “probe-labelled cysteine peptide fold change” value was 0.117.
The same measure, in the same setting: the same measure for “METTL5_Q9NRN9_38_LLLEQYPTRPHIAACMLYTIHNTYDDIENK (UniProt Q9NRN9)”: 0.169; for “METTL3_Q86U44_500_GNPQGFNQGLDCDVIVAEVR (UniProt Q86U44)”: 0.0318.
On the same count and under the same terms, the result for “MCM4_P33991_509_AEINILLCGDPGTSK (UniProt P33991)” reads -0.161.
Still for that read-out and setting: the result for “MED14_O60244_729_TWVAELVFANCPLNGTSTR (UniProt O60244)” reads -0.0181; that for “MFN2_O95140_132_VLPSGIGHTTNCFLR (UniProt O95140)”, -0.13; that for “MCTS1_Q9ULC4_14_ENVSNCIQLK (UniProt Q9ULC4)”, 0.0295.
For the target “MCM6_Q14566_242_CDFTGTLIVVPDVSK (UniProt Q14566)”, the “probe-labelled cysteine peptide fold change” value is 0.12.
On the same count and under the same terms, the result for “MED7_O43513_223_DAALCVLIDEMNERP (UniProt O43513)” reads -0.245; that for “ME1_P48163_240_YGMNCLIQFEDFANVNAFR (UniProt P48163)”, 0.0931.

The same assay, now with this note: 50 µM; THP-1; incubation time: 4 h.
For the target “METTL7B_Q6UX53_203_HIGDGCCLTR (UniProt Q6UX53)”, the “probe-labelled cysteine peptide fold change” value is -0.521.
Still for that read-out and setting: the same measure for “MDH1_P40925_137_VIVVGNPANTNCLTASK (UniProt P40925)”: -0.0447.
Take “MCM5_P33992_482_CSVLAAANSVFGR (UniProt P33992)”: the “probe-labelled cysteine peptide fold change” value was -0.017.
As to “MED1_Q15648_443_EDSPGLLQFEVCPLSESR (UniProt Q15648)”, the “probe-labelled cysteine peptide fold change” value came to 0.192.
Take “MDN1_Q9NU22_3308_LDNLTCHLLK (UniProt Q9NU22)”: the “probe-labelled cysteine peptide fold change” value worked out at 0.0612.
Consider “MESD_Q14696_180_CADVTLEGQVYPGK (UniProt Q14696)”, for which the “probe-labelled cysteine peptide fold change” value was 0.0953.
Regarding “MCM6_Q14566_351_NLYHNLCTSLFPTIHGNDEVKR (UniProt Q14566)”, the “probe-labelled cysteine peptide fold change” value was -0.122.
Same read-out and setting: the result for “METAP1_P53582_202_SCCTSVNEVICHGIPDR (UniProt P53582)” reads -0.0373.
In the case of “MDN1_Q9NU22_1332_KLCPQSLFSK (UniProt Q9NU22)”, the “probe-labelled cysteine peptide fold change” value was -0.556.
The same measure, in the same setting: the result for “MCM7_P33993_566_RYIAMCR (UniProt P33993)” reads -0.0464.
Still for that read-out and setting: the same measure for “MCCC2_Q9HCC0_267_AATGEEVSAEDLGGADLHCRK (UniProt Q9HCC0)”: -1.49.
On to “MGAT2_Q10469_440_NGGWGDIRDHELCK (UniProt Q10469)”, for which the “probe-labelled cysteine peptide fold change” value turned out to be 0.00707.
In the case of “MGRN1_O60291_528_AASIENVLQDSSPEHCGR (UniProt O60291)”, the “probe-labelled cysteine peptide fold change” value was -0.552.
Same read-out and setting: the same measure for “METTL7B_Q6UX53_79+92_VALLELGCGTGANFQFYPPGCR (UniProt Q6UX53)”: -0.146; for “METAP1_P53582_22_LQCPTCIK (UniProt P53582)”: -0.162; for “MCCC2_Q9HCC0_431_MVAAVACAQVPK (UniProt Q9HCC0)”: -0.0757.
As for “MDN1_Q9NU22_3195_ELLCQLLTSLHHFVGEGESK (UniProt Q9NU22)”, the “probe-labelled cysteine peptide fold change” value is -1.2.
Same read-out and setting: the same measure for “MEN1_O00255_414_EAASLLEAGEERPGEQSQGTQSQGSALQDPECFAHLLR (UniProt O00255)”: 0.393.
Turning to “MDN1_Q9NU22_2816_LVVECFSQLK (UniProt Q9NU22)”, the “probe-labelled cysteine peptide fold change” value stood at 0.107.
Turning to “MED14_O60244_1433_QGECTIFAAVR (UniProt O60244)”, the “probe-labelled cysteine peptide fold change” value was -0.216.
The same measure, in the same setting: the result for “MCM5_P33992_197_KCNTDQAGR (UniProt P33992)” reads -0.279; that for “MCMBP_Q9BTE3_602_CLSLSAGQTTLSR (UniProt Q9BTE3)”, 0.0578; that for “METTL14_Q9HCE5_288_EHCLMGIK (UniProt Q9HCE5)”, 0.0146.
Same read-out and setting: the result for “MED23_Q9ULK4_712_ATHVTDFFTGSDSIQGTWCK (UniProt Q9ULK4)” reads 0.304.
Same read-out and setting: the result for “MCM6_Q14566_158_THPVHPELVSGTFLCLDCQTVIR (UniProt Q14566)” reads 0.012.
On to “ME2_P23368_190_LCLYTACAGIRPDR (UniProt P23368)”, for which the “probe-labelled cysteine peptide fold change” value worked out at 0.103.
The same measure, in the same setting: the same measure for “MDH2_P40926_89_GYLGPEQLPDCLK (UniProt P40926)”: -0.0466; for “METTL5_Q9NRN9_38_LLLEQYPTRPHIAACMLYTIHNTYDDIENK (UniProt Q9NRN9)”: -0.0108; for “METTL3_Q86U44_500_GNPQGFNQGLDCDVIVAEVR (UniProt Q86U44)”: -0.1.
Same read-out and setting: the result for “MCM4_P33991_509_AEINILLCGDPGTSK (UniProt P33991)” reads 0.162; that for “MED14_O60244_729_TWVAELVFANCPLNGTSTR (UniProt O60244)”, -0.242.
Same read-out and setting: the result for “MFN2_O95140_132_VLPSGIGHTTNCFLR (UniProt O95140)” reads -0.261; that for “MCTS1_Q9ULC4_14_ENVSNCIQLK (UniProt Q9ULC4)”, -0.216; that for “MCM6_Q14566_242_CDFTGTLIVVPDVSK (UniProt Q14566)”, 0.175.
In the case of “MED7_O43513_223_DAALCVLIDEMNERP (UniProt O43513)”, the “probe-labelled cysteine peptide fold change” value worked out at 0.168.
Still for that read-out and setting: the result for “ME1_P48163_240_YGMNCLIQFEDFANVNAFR (UniProt P48163)” reads 0.17.
